Test results: patent US8076320B2, “Crystalline forms of a pharmaceutical compound” (Cephalon, Inc., priority 2004, dated 2011)
Some results were stated once for a whole list of compounds, not compound by compound.

Test: Light exposure of the solid compound in a Heraeus Suntest CPS+
Format: physicochemical
Conditions: solid compound exposed to light for 14 h at 650W
Experimental: Experiments were carried out in a Heraeus Suntest CPS+ for the crystalline forms alpha, beta and gamma where the solid compound was exposed to light for 14 h at 650W.

Degradation after light treatment, less than 30%:
CCSCc1ccc2c(c1)c1c3c(c4c5cc(CSCC)ccc5n5c4c1n2[C@H]1C[C@](O)(C(=O)OC)[C@]5(C)O1)CNC3=O [gamma], CCSCc1ccc2c(c1)c1c3c(c4c5cc(CSCC)ccc5n5c4c1n2[C@H]1C[C@](O)(C(=O)OC)[C@]5(C)O1)CNC3=O [alpha], CCSCc1ccc2c(c1)c1c3c(c4c5cc(CSCC)ccc5n5c4c1n2[C@H]1C[C@](O)(C(=O)OC)[C@]5(C)O1)CNC3=O [beta]
